Test: Tape durability test (coefficient of friction, still durability, shuttle durability)
Conditions: for Still durability after heating test / Coefficient of friction after 100 runs after heating test / Shuttle durability after heating: after heating test 10 minutes at 100° C.; for Still durability: decay time of output by −3 dB in paused state; for Shuttle durability: number of shuttles until output reduced by 3 dB

Row | Compound | Still durability after heating test (40° C., 30% RH) | Still durability (40° C., 30% RH) | Coefficient of friction after 100 runs (40° C., 90% RH) | Coefficient of friction after 100 runs after heating test (40° C., 90% RH) | Shuttle durability after heating (40° C., 90% RH) | Shuttle durability (40° C., 90% RH) | Coefficient of friction after 100 runs (−5° C.) | Coefficient of friction after 100 runs after heating test (−5° C.) | Shuttle durability after heating (−5° C.) | Still durability after heating test (−5° C.) | Still durability (−5° C.) | Shuttle durability (−5° C.)
1 | nonafluorobutanesulfonic acid-2-heptadecylimidazole [3A] | >60 min | >60 min | 0.20 | 0.21 | >200 times | >200 times | 0.18 | 0.19 | >200 times | >60 min | >60 min | >200 times
2 | CCCCCCCCCCCCn1ccnc1CCCCCCCCCCC.O=S(=O)(NS(=O)(=O)C(F)(F)C(F)(F)C(F)(F)C(F)(F)F)C(F)(F)C(F)(F)C(F)(F)C(F)(F)F [Ex. 2A, bis(nonafluorobutanesulfonyl)imide-1-dodecyl-2-undecylimidazolium] | >60 min | >60 min | 0.25 | 0.26 | >200 times | >200 times | 0.22 | 0.23 | >200 times | >60 min | >60 min | >200 times
3 | nonafluorobutanesulfonic acid-1-octadecyl-2-undecylimidazolium [Ex. 3A] | >60 min | >60 min | 0.21 | 0.22 | >200 times | >200 times | 0.20 | 0.21 | >200 times | >60 min | >60 min | >200 times
4 | CCCCCCCCCCCCCCCCCC[n+]1ccn(CCCC)c1.O=S1(=O)[N-]S(=O)(=O)C(F)(F)C(F)(F)C1(F)F [2A, hexafluorocyclopropane-1,3-bis(sulfonyl)imide-1-butyl-3-n-octadecylimidazolium] | >60 min | >60 min | 0.25 | 0.27 | >200 times | >200 times | 0.23 | 0.25 | >200 times | >60 min | >60 min | >200 times
5 | CCCCCCCCCCCCCCCCCCn1ccnc1CCCCCCCCCCCCCCCCC.O=S(=O)(O)C(F)(F)C(F)(F)C(F)(F)C(F)(F)F [4A, nonafluorobutanesulfonic acid-1-octadecyl-2-heptadecyimidazole] | >60 min | >60 min | 0.22 | 0.23 | >200 times | >200 times | 0.20 | 0.21 | >200 times | >60 min | >60 min | >200 times
6 | nonafluorobutanesulfonic acid-1-dodecyl-2-undecylimidazolium [Ex. 1A] | >60 min | >60 min | 0.24 | 0.25 | >200 times | >200 times | 0.23 | 0.24 | >200 times | >60 min | >60 min | >200 times
7 | CCCCCCCCCCCCCCCCCCn1ccnc1CCCCCCCCCCC.O=S(=O)(NS(=O)(=O)C(F)(F)C(F)(F)C(F)(F)C(F)(F)F)C(F)(F)C(F)(F)C(F)(F)C(F)(F)F [Ex. 4A, bis(nonafluorobutanesulfonyl)imide-1-octadecyl-2-undecylimidazolium] | >60 min | >60 min | 0.22 | 0.23 | >200 times | >200 times | 0.21 | 0.22 | >200 times | >60 min | >60 min | >200 times

— patent publication US20180012623A1, “Ionic Liquid, Lubricant, and Magnetic Recording Medium” (Dexerials Corporation, priority 2016, published 2018)
